In PubChem BioAssay AID328 (DTP/NCI, 2004):
The list shows only some results of the screen, not a fair sample: it gathers tests that were run many times, whatever their T/C, doses with no T/C, and many T/C values between a quarter and a half above the control. Further doses and runs are listed elsewhere. T/C gives the treated animals as a percentage of the vehicle group. Some doses have a count of surviving animals in place of a T/C: the source holds a T/C of zero for them, seemingly a mark for toxic or unscored doses. Some survivor counts are full or nearly so, which does not show that the dose was tolerated: the source hardly ever lists a survival T/C far under the control, and the zero likely stands for such cases as well. Counts of survivors are from the toxicity check (mostly the fifth day) where no day follows; animals may have died later. Schedule codes are those of the source, taken here to give the interval after Q, in days (D) or hours (H), and the number of doses after X. For survival time, the PubChem record calls one and a half times the control and up active, and a quarter to a half above the control has no call in these data; cut-offs in other NCI protocols can differ. Some T/C values carry the count of animals alive at the toxicity check (mostly the fifth day); without a count, all were alive then.

Tested on: BDF1 mice, P388 leukemia ip, median survival T/C
Assay: NCI In Vivo Anticancer Drug Screen. Data for tumor model P388 Leukemia (intraperitoneal) in B6D2F1 (BDF1) mice
Details: T/C endpoint: median survival time, higher T/C = longer survival
Summary of the method: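 Steps: implant the tumour, treat one group with compound and another with vehicle, record survival, then divide treated by control.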

[1] = dose: 100.0 mg/kg/injection, schedule: Q01DX009 (ip), vehicle: saline with Tween-80
[2] = dose: 3.0 mg/kg/injection, schedule: Q01DX009 (ip), vehicle: Klucel (hydroxypropylcellulose) (HPC)
[3] = dose: 400.0 mg/kg/injection, schedule: Q04DX003 (ip), vehicle: other
[4] = dose: 200.0 mg/kg/injection, schedule: Q01DX009 (ip), vehicle: saline with Tween-80
[5] = dose: 200.0 mg/kg/injection, schedule: Q04DX003 (ip), vehicle: saline with Tween-80
[6] = dose: 400.0 mg/kg/injection, schedule: Q04DX003 (ip), vehicle: saline with Tween-80
[7] = dose: 2.0 mg/kg/injection, schedule: Q01DX009 (ip), vehicle: other

## NC(=O)c1cn(C2OC(CO)C(O)C2O)c2ncnc(N)c12 (stereo not given)
dose: 0.09 mg/kg/injection, schedule: Q01DX009 (ip), vehicle: saline with Tween-80
  T/C: 133 % of control
dose: 1.3 mg/kg/injection, schedule: Q04DX003 (ip), vehicle: saline with Tween-80
  T/C: 127 % of control
dose: 3.0 mg/kg/injection, schedule: Q01DX009 (ip), vehicle: saline with Tween-80
  survivor count: 6 of 6
dose: 3.0 mg/kg/injection, schedule: Q04DX003 (ip), vehicle: saline with Tween-80
  T/C: 127 % of control
dose: 4.5 mg/kg/injection, schedule: Q04DX003 (ip), vehicle: saline with Tween-80
  T/C: 127 % of control
dose: 6.0 mg/kg/injection, schedule: Q01DX009 (ip), vehicle: saline with Tween-80
  survivor count: 5 of 6
dose: 12.0 mg/kg/injection, schedule: Q01DX009 (ip), vehicle: saline with Tween-80
  survivor count: 1 of 6
dose: 12.0 mg/kg/injection, schedule: Q04DX003 (ip), vehicle: saline with Tween-80
  survivor count: 5 of 6
dose: 12.0 mg/kg/injection, schedule: Q04DX003 (ip), vehicle: saline
  survivor count: 6 of 6

## O=C(CBr)c1cccc(OC(=O)c2ccccc2)c1
dose: 100.0 mg/kg/injection, schedule: Q04DX003 (ip), vehicle: Klucel (hydroxypropylcellulose) (HPC)
  survivor count: 2 of 6

## C[C@H](CCC[C@H](C)OS(=O)(=O)c1ccccc1)OS(=O)(=O)c1ccccc1
[1]
  T/C: 148 % of control

## CCCCCCCCNc1cc2c3c(c1)CCCN3CCC2
dose: 0.75 mg/kg/injection, schedule: Q01DX009 (ip), vehicle: Klucel (hydroxypropylcellulose) (HPC)
  T/C: 132 % of control
dose: 1.5 mg/kg/injection, schedule: Q01DX009 (ip), vehicle: Klucel (hydroxypropylcellulose) (HPC)
  T/C: 135 % of control
dose: 2.0 mg/kg/injection, schedule: Q01DX009 (ip), vehicle: Klucel (hydroxypropylcellulose) (HPC)
  T/C: 129 % of control
[2]
  T/C: 137 % of control
  survivor count: 6 of 6
dose: 4.5 mg/kg/injection, schedule: Q01DX009 (ip), vehicle: Klucel (hydroxypropylcellulose) (HPC)
  survivor count: 6 of 6
dose: 6.0 mg/kg/injection, schedule: Q01DX009 (ip), vehicle: Klucel (hydroxypropylcellulose) (HPC)
  survivor count: 6 of 6

## CCC(C)(C)c1ccc(Oc2ccccc2)c(N)c1
[3]
  survivor count: 6 of 6

## CC(C)CNS(=O)(=O)c1ncnc2nc[nH]c12
[4]
  survivor count: 1 of 6

## Cc1ccc2c(C)c3ccc4ccccc4c3c[n+]2c1
dose: 10.0 mg/kg/injection, schedule: Q01DX009 (ip), vehicle: Klucel (hydroxypropylcellulose) (HPC)
  T/C: 127 % of control
dose: 20.0 mg/kg/injection, schedule: Q01DX009 (ip), vehicle: Klucel (hydroxypropylcellulose) (HPC)
  T/C: 131 % of control
dose: 37.5 mg/kg/injection, schedule: Q01DX009 (ip), vehicle: Klucel (hydroxypropylcellulose) (HPC)
  T/C: 140 % of control [5 of 6 alive]
dose: 40.0 mg/kg/injection, schedule: Q01DX009 (ip), vehicle: Klucel (hydroxypropylcellulose) (HPC)
  T/C: 131 % of control
dose: 75.0 mg/kg/injection, schedule: Q01DX009 (ip), vehicle: Klucel (hydroxypropylcellulose) (HPC)
  survivor count: 3 of 6
dose: 80.0 mg/kg/injection, schedule: Q01DX009 (ip), vehicle: Klucel (hydroxypropylcellulose) (HPC)
  T/C: 145 % of control
dose: 80.0 mg/kg/injection, schedule: Q04DX003 (ip), vehicle: saline
  T/C: 140 % of control
dose: 150.0 mg/kg/injection, schedule: Q01DX009 (ip), vehicle: Klucel (hydroxypropylcellulose) (HPC)
  survivor count: 5 of 6
dose: 160.0 mg/kg/injection, schedule: Q04DX003 (ip), vehicle: saline
  T/C: 136 % of control
dose: 300.0 mg/kg/injection, schedule: Q01DX009 (ip), vehicle: Klucel (hydroxypropylcellulose) (HPC)
  survivor count: 4 of 6
dose: 600.0 mg/kg/injection, schedule: Q01DX009 (ip), vehicle: Klucel (hydroxypropylcellulose) (HPC)
  survivor count: 5 of 6

## NNc1nccnc1Cl
dose: 400.0 mg/kg/injection, schedule: Q04DX003 (ip), vehicle: saline
  survivor count: 1 of 6

## CCCCCCCCCCCCCCCCCCCCCCCCCCCC(=O)OCC(O)CO (stereo not given)
dose: 0.5 mg/kg/injection, schedule: Q01DX009 (ip), vehicle: saline + alcohol
  T/C: 125 % of control

## CC1=C2C(=O)c3ccccc3C2=C(C)S(=O)(=O)O1
dose: 100.0 mg/kg/injection, schedule: Q04DX003 (ip), vehicle: saline with Tween-80
  survivor count: 0 of 6
dose: 200.0 mg/kg/injection, schedule: Q01DX009 (ip), vehicle: carboxymethylcellulose (CMC)
  survivor count: 3 of 6
[5]
  T/C: 133 % of control
  survivor count: 0 of 6
[6]
  T/C: 127 % of control
  survivor count: 0 of 6
dose: 600.0 mg/kg/injection, schedule: Q04DX003 (ip), vehicle: saline with Tween-80
  survivor count: 0 of 6

## Nc1cc2nnc(-c3ccccc3)c(-c3ccccc3)n2n1
dose: 200.0 mg/kg/injection, schedule: Q04DX002 (ip), vehicle: saline with Tween-80
  survivor count: 6 of 6

## COc1ccc(NC2=NCCS2)cc1
[4]
  survivor count: 4 of 6

## FC(Cl)(Cl)c1nc2nc(Cl)c(Cl)nc2[nH]1
dose: 200.0 mg/kg/injection, schedule: Q04DX003 (ip), vehicle: water
  survivor count: 2 of 6

## CCCCCCCCCCC[N+](C)(C)CCCCCC[N+](C)(C)CCCCCCCCCCC
dose: 6.25 mg/kg/injection, schedule: Q01DX009 (ip), vehicle: saline
  T/C: 136 % of control
dose: 12.5 mg/kg/injection, schedule: Q01DX009 (ip), vehicle: saline
  survivor count: 6 of 6
dose: 50.0 mg/kg/injection, schedule: Q01DX009 (ip), vehicle: saline with Tween-80
  survivor count: 0 of 6
[1]
  survivor count: 0 of 6
[4]
  survivor count: 0 of 6

## CC(NC(=O)c1ccc(Cl)cc1Cl)c1ccccc1 (stereo not given)
dose: 200.0 mg/kg/injection, schedule: Q01DX001 (ip), vehicle: other
  survivor count: 6 of 6

## OC1CC2c3ccccc3C1c1cccc[n+]12 (stereo not given)
dose: 25.0 mg/kg/injection, schedule: Q01DX009 (ip), vehicle: Klucel (hydroxypropylcellulose) (HPC)
  survivor count: 6 of 6
dose: 115.0 mg/kg/injection, schedule: Q01DX009 (ip), vehicle: Klucel (hydroxypropylcellulose) (HPC)
  survivor count: 0 of 6
dose: 170.0 mg/kg/injection, schedule: Q01DX009 (ip), vehicle: Klucel (hydroxypropylcellulose) (HPC)
  survivor count: 0 of 6
dose: 225.0 mg/kg/injection, schedule: Q04DX003 (ip), vehicle: Klucel (hydroxypropylcellulose) (HPC)
  survivor count: 1 of 6

## COc1ccc(CSc2ncnc3nc[nH]c23)cc1
[4]
  survivor count: 5 of 6
dose: 400.0 mg/kg/injection, schedule: Q01DX009 (ip), vehicle: saline with Tween-80
  survivor count: 5 of 6

## CCC[CH2][Sn](=[S])[CH2]CCC
dose: 0.88 mg/kg/injection, schedule: Q01DX009 (ip), vehicle: other
  T/C: 127 % of control
dose: 1.3 mg/kg/injection, schedule: Q01DX009 (ip), vehicle: other
  T/C: 126 % of control
[7]
  T/C: 128 % of control
  survivor count: 6 of 6
dose: 3.0 mg/kg/injection, schedule: Q01DX009 (ip), vehicle: other
  survivor count: 6 of 6
dose: 4.0 mg/kg/injection, schedule: Q04DX003 (ip), vehicle: other
  survivor count: 5 of 6
dose: 4.5 mg/kg/injection, schedule: Q01DX009 (ip), vehicle: other
  survivor count: 2 of 6
dose: 6.0 mg/kg/injection, schedule: Q04DX003 (ip), vehicle: other
  survivor count: 6 of 6
dose: 9.0 mg/kg/injection, schedule: Q04DX003 (ip), vehicle: other
  survivor count: 1 of 6
dose: 50.0 mg/kg/injection, schedule: Q01DX010 (ip), vehicle: carboxymethylcellulose (CMC)
  T/C: 135 % of control
dose: 100.0 mg/kg/injection, schedule: Q01DX010 (ip), vehicle: carboxymethylcellulose (CMC)
  survivor count: 5 of 6
dose: 100.0 mg/kg/injection, schedule: Q04DX003 (ip), vehicle: other
  survivor count: 0 of 6
dose: 200.0 mg/kg/injection, schedule: Q04DX003 (ip), vehicle: other
  survivor count: 0 of 6
dose: 400.0 mg/kg/injection, schedule: Q01DX010 (ip), vehicle: carboxymethylcellulose (CMC)
  survivor count: 6 of 6
[3]
  survivor count: 0 of 6
